Measured values published in patent publication US20250268848A1, “COMPOSITIONS COMPRISING ENDOSIDIN 2 FOR REDUCING SARS-COV-2 INFECTION” (HENRY FORD HEALTH SYSTEM, priority 2021, published 2025).
At least one compound was matched to its structure with a doubt left.

How the values were obtained:
PBMCs = assay: Flow cytometry of ACE2 and TMPRSS2 cell surface expression in PBMCs stimulated ex vivo; assay type: cell-based, human
Description: Mouse IgG1 antibodies were used as the isotype controls.
PBMCs were ex vivo cultured with R848, LPS or medium alone for 4 hrs, 24 hrs, and 48 hrs. Representative flow cytometric analysis of surface expression of ACE2 and TMPRSS2 in cDC.
PBMCs were ex vivo cultured with PMA plus ionomycin for 4 h. Representative flow cytometric analysis of surface expression of TMPRSS2 in CD4+, CD8+ and total T cells.
For ex vivo stimulation assays analyzed by flow cytometry, fresh PBMCs were isolated from CPT tubes using a standard protocol. Briefly, whole blood cells were diluted with Ca^2+-free and Mg^2+-free PBS buffer (Corning, NY) containing 2% fetal bovine serum (FBS, R&D Systems, Minneapolis, MN) and 2 mM EDTA (VWR Life Science, Radnor, PA) and slowly overlaid onto Ficoll-Paque™ (GE healthcare, Chicago, IL) at 2:1 ratio by volume. The samples were centrifuged at RT for 20 min at 800×g with no braking. Next, the mononuclear cell layer at the plasma-Ficoll interface was moved into a new 50 ml tube and washed with PBS buffer and red blood cell lysis buffer at RT for 5 min. The isolated PBMCs were used on the day of isolation or placed at −80° C. for storage. […]
Flow cytometry methods. […] All data were analyzed using FlowJo 10.5.3 (BO Biosciences). […]

SARS-CoV-2 = assay type: cell-based

Row | Compound | monocytes with TMPRSS2 protein on the cell surface (PBMCs; 4 h treatment) | frequency of TMPRSS2+ monocytes (PBMCs; 24 h and 48 h post-treatment) [%-SO] | SARS-CoV-2 infection of TLR-stimulated ACE2+CD14+ and ACE2-CD14+ monocytes (SARS-CoV-2) | effect on surface ACE2 expression (SARS-CoV-2)
1 | CCOCc1nc2c(N)nc3ccccc3c2n1CC(C)(C)O [R848, resiquimod] | S %-10 | 20 | – | –
2 | CCC(CC)COC(=O)[C@H](C)N[P@](=O)(OC[C@H]1O[C@@](C#N)(c2ccc3c(N)ncnn23)[C@H](O)[C@@H]1O)Oc1ccccc1 [remdesivir] | – | – | almost completely blocked | minimal effects
